These are yes or no findings as the source states them, for the method shown. In cells and extracts the contact can be indirect. Some binding calls cover weakened binding; strength is not graded here.
Molecular target: Huntingtin (mouse (endogenous in cerebral cortex)) (UniProt P42859)
Test: co-IP

Protein sequences, listed by entry. Tags and fused reporters are not part of them.
UniProt P42859: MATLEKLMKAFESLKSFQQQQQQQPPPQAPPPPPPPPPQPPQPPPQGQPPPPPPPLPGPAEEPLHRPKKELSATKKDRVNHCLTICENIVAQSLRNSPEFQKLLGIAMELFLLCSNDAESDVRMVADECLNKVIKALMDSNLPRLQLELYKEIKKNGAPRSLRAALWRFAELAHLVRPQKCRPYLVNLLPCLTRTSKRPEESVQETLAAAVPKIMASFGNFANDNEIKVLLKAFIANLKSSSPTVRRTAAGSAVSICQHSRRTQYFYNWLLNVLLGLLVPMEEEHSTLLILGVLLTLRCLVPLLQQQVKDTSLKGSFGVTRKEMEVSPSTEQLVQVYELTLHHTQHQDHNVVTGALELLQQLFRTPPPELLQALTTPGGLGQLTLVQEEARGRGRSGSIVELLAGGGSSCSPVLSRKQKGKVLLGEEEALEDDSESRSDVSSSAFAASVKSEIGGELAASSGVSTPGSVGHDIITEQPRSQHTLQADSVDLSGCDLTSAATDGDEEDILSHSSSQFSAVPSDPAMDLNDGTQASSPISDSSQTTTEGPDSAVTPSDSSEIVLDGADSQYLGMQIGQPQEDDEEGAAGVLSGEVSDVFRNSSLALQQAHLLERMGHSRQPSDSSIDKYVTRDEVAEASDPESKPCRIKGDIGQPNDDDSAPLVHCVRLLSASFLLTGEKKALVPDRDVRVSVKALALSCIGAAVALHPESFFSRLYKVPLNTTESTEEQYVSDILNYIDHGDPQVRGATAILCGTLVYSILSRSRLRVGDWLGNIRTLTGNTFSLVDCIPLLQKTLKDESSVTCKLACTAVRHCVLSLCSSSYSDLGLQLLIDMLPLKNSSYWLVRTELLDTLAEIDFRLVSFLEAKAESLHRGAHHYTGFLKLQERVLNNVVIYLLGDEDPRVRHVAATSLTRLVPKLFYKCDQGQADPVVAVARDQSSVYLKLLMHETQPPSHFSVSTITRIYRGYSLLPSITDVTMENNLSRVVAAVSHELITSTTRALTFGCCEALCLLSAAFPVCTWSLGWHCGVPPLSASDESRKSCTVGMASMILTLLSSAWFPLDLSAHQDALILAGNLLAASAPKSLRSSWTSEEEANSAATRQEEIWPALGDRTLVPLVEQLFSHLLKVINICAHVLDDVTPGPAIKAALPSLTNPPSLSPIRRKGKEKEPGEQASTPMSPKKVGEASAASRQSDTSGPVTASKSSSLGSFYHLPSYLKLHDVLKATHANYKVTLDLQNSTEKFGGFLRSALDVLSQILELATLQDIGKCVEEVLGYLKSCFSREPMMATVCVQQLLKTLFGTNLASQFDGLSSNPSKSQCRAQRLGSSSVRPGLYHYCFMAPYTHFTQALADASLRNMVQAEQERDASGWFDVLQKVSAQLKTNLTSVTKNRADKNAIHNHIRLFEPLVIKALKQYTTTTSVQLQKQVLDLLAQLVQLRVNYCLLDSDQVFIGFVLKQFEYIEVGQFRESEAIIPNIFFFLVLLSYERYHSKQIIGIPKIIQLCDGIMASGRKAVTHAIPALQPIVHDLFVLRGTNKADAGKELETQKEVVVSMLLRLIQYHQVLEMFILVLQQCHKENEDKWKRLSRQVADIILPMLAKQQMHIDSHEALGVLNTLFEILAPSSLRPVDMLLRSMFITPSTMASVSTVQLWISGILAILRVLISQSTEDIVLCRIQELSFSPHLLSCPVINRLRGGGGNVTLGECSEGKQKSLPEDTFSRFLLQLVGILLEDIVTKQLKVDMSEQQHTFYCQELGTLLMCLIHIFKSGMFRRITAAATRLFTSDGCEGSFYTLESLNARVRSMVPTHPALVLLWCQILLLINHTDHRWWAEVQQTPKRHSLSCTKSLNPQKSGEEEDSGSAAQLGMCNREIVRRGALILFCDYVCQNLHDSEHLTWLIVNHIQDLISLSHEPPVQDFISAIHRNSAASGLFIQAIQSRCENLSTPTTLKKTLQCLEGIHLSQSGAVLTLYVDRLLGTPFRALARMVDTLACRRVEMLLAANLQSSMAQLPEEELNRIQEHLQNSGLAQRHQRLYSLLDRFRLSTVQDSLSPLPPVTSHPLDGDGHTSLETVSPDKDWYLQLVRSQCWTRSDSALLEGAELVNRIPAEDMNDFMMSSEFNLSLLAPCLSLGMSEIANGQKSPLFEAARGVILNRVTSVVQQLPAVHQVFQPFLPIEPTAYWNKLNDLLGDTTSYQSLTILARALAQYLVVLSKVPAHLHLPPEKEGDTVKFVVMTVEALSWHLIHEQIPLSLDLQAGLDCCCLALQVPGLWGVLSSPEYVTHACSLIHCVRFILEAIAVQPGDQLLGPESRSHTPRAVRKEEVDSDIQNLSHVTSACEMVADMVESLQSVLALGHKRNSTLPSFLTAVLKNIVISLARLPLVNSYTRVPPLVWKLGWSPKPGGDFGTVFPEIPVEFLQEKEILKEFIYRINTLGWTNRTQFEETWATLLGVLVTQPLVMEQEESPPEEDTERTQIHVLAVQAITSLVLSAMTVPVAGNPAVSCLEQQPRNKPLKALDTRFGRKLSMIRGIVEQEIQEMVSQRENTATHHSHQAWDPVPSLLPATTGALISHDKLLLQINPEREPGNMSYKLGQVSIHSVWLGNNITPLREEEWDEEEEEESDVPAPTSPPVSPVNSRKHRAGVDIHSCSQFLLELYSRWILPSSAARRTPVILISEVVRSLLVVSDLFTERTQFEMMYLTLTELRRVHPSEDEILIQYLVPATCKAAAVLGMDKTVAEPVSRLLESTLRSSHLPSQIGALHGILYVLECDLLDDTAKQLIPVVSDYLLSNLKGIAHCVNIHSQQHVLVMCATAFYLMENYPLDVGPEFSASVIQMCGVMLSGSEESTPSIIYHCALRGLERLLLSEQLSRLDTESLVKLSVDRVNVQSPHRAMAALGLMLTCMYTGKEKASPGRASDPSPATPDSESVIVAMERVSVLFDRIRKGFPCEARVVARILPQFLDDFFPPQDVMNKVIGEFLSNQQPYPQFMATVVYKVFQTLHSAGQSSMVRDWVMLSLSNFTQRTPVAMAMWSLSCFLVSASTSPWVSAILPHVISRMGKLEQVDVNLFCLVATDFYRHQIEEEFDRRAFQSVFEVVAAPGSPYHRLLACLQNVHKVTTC
UniProt O08788: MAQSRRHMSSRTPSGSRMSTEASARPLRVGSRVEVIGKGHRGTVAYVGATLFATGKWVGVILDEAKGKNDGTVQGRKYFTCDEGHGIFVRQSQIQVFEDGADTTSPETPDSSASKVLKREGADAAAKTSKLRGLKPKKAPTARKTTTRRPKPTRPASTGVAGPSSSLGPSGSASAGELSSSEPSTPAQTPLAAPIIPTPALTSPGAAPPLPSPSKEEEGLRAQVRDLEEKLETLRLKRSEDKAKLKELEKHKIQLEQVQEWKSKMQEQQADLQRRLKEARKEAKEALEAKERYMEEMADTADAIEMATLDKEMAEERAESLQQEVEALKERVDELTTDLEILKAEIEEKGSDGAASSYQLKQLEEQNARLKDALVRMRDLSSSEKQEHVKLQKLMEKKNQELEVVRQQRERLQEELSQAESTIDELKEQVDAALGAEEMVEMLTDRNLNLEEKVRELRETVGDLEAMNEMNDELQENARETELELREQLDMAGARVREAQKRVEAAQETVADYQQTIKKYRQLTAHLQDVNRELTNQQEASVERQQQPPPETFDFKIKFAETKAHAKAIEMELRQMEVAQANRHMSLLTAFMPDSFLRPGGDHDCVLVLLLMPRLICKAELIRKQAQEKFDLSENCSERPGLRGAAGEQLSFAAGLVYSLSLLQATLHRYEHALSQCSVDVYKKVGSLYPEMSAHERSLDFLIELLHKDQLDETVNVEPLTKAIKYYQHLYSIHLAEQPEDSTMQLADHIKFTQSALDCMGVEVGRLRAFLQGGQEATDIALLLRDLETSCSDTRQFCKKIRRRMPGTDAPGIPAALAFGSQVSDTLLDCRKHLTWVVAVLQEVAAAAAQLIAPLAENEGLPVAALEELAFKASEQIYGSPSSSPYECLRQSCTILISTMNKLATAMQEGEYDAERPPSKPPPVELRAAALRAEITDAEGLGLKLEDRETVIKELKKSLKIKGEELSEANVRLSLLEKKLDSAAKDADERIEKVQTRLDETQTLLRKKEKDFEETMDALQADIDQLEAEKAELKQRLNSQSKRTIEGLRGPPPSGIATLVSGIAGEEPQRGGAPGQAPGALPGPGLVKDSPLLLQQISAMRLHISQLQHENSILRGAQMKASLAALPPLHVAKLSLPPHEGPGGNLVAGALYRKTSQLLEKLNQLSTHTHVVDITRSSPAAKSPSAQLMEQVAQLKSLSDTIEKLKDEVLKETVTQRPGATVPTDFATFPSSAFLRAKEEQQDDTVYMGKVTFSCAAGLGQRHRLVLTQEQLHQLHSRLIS

Row | binding | Molecule
1 | binds | dynactin subunit p150^Glued (from UniProt O08788 1-1281)
2 | binds | Disc1 (protein, UniProt Q811T9 1-852) MQGGGPRGAPIHSPSHGADSGHGLPPAVAPQRRRLTRRPGYMRSTAGSGIGFLSPAVGMPHPSSAGLTGQQSQHSQSKAGQCGLDPGSHCQASLVGKPFLKSSLVPAVASEGHLHPAQRSMRKRPVHFAVHSKNDSRQSERLTGSFKPGDSGFWQELLSSDSFKSLAPSLDAPWNKGSRGLKTVKPLASPALNGPADIASLPGFQDTFTSSFSFIQLSLGAAGERGEAEGCLPSREAEPLHQRPQEMAAEASSSDRPHGDPRHLWTFSLHAAPGLADLAQVTRSSSRQSECGTVSSSSSDTGFSSQDASSAGGRGDQGGGWADAHGWHTLLREWEPMLQDYLLSNRRQLEVTSLILKLQKCQEKVVEDGDYDTAETLRQRLEELEQEKGRLSWALPSQQPALRSFLGYLAAQIQVALHGATQRAGSDDPEAPLEGQLRTTAQDSLPASITRRDWLIREKQRLQKEIEALQARMSALEAKEKRLSQELEEQEVLLRWPGCDLMALVAQMSPGQLQEVSKALGETLTSANQAPFQVEPPETLRSLRERTKSLNLAVRELTAQVCSGEKLCSSLRRRLSDLDTRLPALLEAKMLALSGSCFSTAKELTEEIWALSSEREGLEMFLGRLLALSSRNSRRLGIVKEDHLRCRQDLALQDAAHKTRMKANTVKCMEVLEGQLSSCRCPLLGRVWKADLETCQLLMQSLQLQEAGSSPHAEDEEQVHSTGEAAQTAALAVPRTPHPEEEKSPLQVLQEWDTHSALSPHCAAGPWKEDSHIVSAEVGEKCEAIGVKLLHLEDQLLGAMYSHDEALFQSLQGELQTVKETLQAMILQLQPTKEAGEASASYPTAGAQETEA

Reference: paper doi:10.1101/497446
